PubChem BioAssay (EPA / NIEHS)
Several values for one entry are separate records, joined by “and”; a condition that tells them apart may be missing. Equal values may be shown once. The inconclusive results got no clear call from the source; some entries with a clear call stand among them for comparison. Potencies of inconclusive entries are doubtful fits and often do not repeat. Activity calls are given as the source filed them. The calls were made as follows: active = hit-call score of the fitted dose curve at least 0.9, where 1 is the maximum; inconclusive = response in the unintended direction; inactive = score below 0.9.

Protein sequences, listed by entry. Tags and fused reporters are not part of them. Lines headed by an entry give the natural chain unless they say otherwise; changes in a name come on top.
UniProt P19793: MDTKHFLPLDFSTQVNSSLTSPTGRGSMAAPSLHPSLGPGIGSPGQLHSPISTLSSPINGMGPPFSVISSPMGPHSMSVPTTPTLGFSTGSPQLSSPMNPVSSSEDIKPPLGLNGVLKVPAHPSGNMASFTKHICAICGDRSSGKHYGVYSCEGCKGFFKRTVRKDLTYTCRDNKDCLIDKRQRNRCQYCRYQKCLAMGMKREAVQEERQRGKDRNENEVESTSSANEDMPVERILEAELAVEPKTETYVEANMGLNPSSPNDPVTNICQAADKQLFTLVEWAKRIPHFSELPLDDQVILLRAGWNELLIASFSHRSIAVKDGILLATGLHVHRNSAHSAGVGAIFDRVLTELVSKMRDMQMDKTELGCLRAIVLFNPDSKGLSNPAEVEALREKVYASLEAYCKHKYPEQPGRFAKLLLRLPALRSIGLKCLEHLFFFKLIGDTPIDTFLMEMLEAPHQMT
UniProt P04637, whole entry, looked up: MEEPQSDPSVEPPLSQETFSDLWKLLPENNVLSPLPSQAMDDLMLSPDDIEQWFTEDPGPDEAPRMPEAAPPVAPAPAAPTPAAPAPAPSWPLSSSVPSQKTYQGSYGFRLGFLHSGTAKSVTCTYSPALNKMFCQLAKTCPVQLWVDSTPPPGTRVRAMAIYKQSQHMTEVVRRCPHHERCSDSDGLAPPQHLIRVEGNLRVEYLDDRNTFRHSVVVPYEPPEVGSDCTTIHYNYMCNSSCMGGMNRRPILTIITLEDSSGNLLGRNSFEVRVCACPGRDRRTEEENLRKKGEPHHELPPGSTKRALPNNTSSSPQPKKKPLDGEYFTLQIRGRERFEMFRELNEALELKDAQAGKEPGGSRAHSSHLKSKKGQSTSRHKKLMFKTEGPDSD

Legend:
[1] = molecular target: Retinoic acid receptor RXR-alpha (Homo sapiens) (UniProt P19793); assay: OT_NURR1_NURR1RXRa_0480: Odyssey Thera (OT) 8-hour HEK293T Protein Complementation Assay for Nurr1/retinoid X receptor (RXR) (AID 2283385)
Procedure, shortened: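 HEK293T cells expressing Nurr1 and RXRα fused to reporter fragments were dosed with compound for 8 hours. Complex formation was read as fluorescence intensity and analysed as gain of signal against DMSO as baseline.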

[2] = molecular target: Cellular tumor antigen p53 (Homo sapiens) (UniProt P04637); assay: TOX21_p53_BLA_p2_ratio: Tox21 HCT-116 p53 Agonism Beta-lactamase Assay, Ratio, Phase 2 (AID 2283592)
Procedure, shortened: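 Gain-of-signal p53 agonism was scored from the beta-lactamase FRET ratio (460/530 nm, 405 nm excitation) in HCT116 cells treated 16 h at 37C, 5% CO2, with DMSO serving as negative control and baseline.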

[3] = TOX21_p53_BLA_p3_viability: Viability Assessment in the Tox21 HCT-116 p53 Agonism Beta-lactamase Assay, Phase 3 (AID 2283593);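 also: cells exposed to compound for 16 h before reading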
Procedure, shortened: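 HCT116 cells, 4000/well, dosed 5 h after plating by pin transfer (217-fold dilution from DMSO stock) and incubated 16 h at 37C, 5% CO2. Viability read as ATP luminescence with CellTiter-Glo after 30 min at room temperature.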

[4] = molecular target: Cellular tumor antigen p53 (Homo sapiens) (UniProt P04637); assay: TOX21_p53_BLA_p3_ratio: Tox21 HCT-116 p53 Agonism Beta-lactamase Assay, Ratio, Phase 3 (AID 2283596)
Procedure, shortened: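 HCT116 p53-bla cells (4000/well) given compound in DMSO (217-fold dilution) after 5 h, incubated 16 h at 37C. CCF4-AM substrate 2 h at room temperature; 460/530 nm emission ratio, gain fitted against DMSO.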

[5] = TOX21_p53_BLA_p4_viability: Viability Assessment in the Tox21 HCT-116 p53 Agonism Beta-lactamase Assay, Phase 4 (AID 2283597);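 also: hits lower the luminescence signal meaning cytotoxicity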
Procedure, shortened: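 Following a 16 h exposure at 37C, the treated HCT116 wells were first read for the FRET ratio. They were then lysed with CellTiter-Glo, and ATP luminescence was recorded after 30 min at room temperature.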

[6] = molecular target: Cellular tumor antigen p53 (Homo sapiens) (UniProt P04637); assay: TOX21_p53_BLA_p5_ratio: Tox21 HCT-116 p53 Agonism Beta-lactamase Assay, Ratio, Phase 5 (AID 2283599)
Procedure, shortened: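 HCT-116 p53-bla cells (4000/well) plated 5 h, dosed with compound (217-fold DMSO dilution) for 16 h at 37 C; CCF4-AM substrate 2 h at room temperature. Activity is the 460/530 nm emission ratio (405 nm excitation), fitted in gain-of-signal direction versus DMSO.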

[7] = TOX21_p53_BLA_p5_viability: Viability Assessment in the Tox21 HCT-116 p53 Agonism Beta-lactamase Assay, Phase 5 (AID 2283600)
Procedure, shortened: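 After the 460/530 nm beta-lactamase measurement, the wells received an ATP-detection luciferase reagent; signal was read 30 min later at RT. Compound treatment lasted 16 h on cells pre-incubated 5 h post-seeding.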

[8] = molecular target: Cellular tumor antigen p53 (Homo sapiens) (UniProt P04637); assay: TOX21_p53_BLA_p4_ratio: Tox21 HCT-116 p53 Agonism Beta-lactamase Assay, Ratio, Phase 4 (AID 2283601)
Procedure, shortened: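 HCT-116 p53 beta-lactamase reporter cells (4000/well) preincubated 5 h, then compound (217-fold dilution of DMSO stock) for 16 h at 37C. CCF4-AM substrate added 2 h at room temperature; 460/530 nm emission ratio fitted upward versus DMSO.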

[9] = TOX21_p53_BLA_p2_viability: Viability Assessment in the Tox21 HCT-116 p53 Agonism Beta-lactamase Assay, Phase 2 (AID 2283591);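 also: compound exposure lasted 16 h at 37 °C; actives lower the ATP signal meaning cytotoxicity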
Procedure, shortened: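 HCT116 p53-bla cells, 4000/well, dosed after 5 h plating (217-fold dilution of DMSO stocks) and incubated 16 h at 37C. Viability taken as cellular ATP by CellTiter-Glo luminescence after 30 min RT; signal loss marks cytotoxicity.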

[10] = Tanguay_ZF_120hpf_YSE_legacy: (Legacy) Oregon State University Tanguay Lab 120 Hour Post-fertilization zebrafish Assay for Yolk Sac Edema (AID 2283634);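 also: actives raise the incidence of yolk sac edema above the DMSO baseline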
Procedure, shortened: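 Presence or absence of yolk sac edema was recorded at 120 hpf in surviving larvae. These were wild-type Tropical 5D embryos, chorion removed at 4 hpf, held in static exposure at 28C from 6 hpf with 0.64% DMSO vehicle.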

[11] = Tanguay_ZF_120hpf_EYE_legacy: (Legacy) Oregon State University Tanguay Lab 120 Hour Post-fertilization zebrafish Assay for Eye Malformation (AID 2283636);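 also: binary presence or absence of eye malformation scored by brightfield in 120 hpf larvae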
Procedure, shortened: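 Dechorionated Tropical 5D zebrafish embryos, one per well from 6 hpf, static exposure to 120 hpf at 28C, 0.64% DMSO. Eye malformation scored present/absent by brightfield; dead embryos not scored.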

[12] = Tanguay_ZF_120hpf_SNOU_legacy: (Legacy) Oregon State University Tanguay Lab 120 Hour Post-fertilization zebrafish Assay for Snout Malformation (AID 2283637)
Procedure, shortened: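 Dechorionated tropical 5D wild-type zebrafish embryos exposed statically from 6 to 120 hpf at 28C, one per well, in 0.64% DMSO. Snout malformation scored as present/absent by brightfield at 120 hpf; dead embryos not scored.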

[13] = Tanguay_ZF_120hpf_JAW_legacy: (Legacy) Oregon State University Tanguay Lab 120 Hour Post-fertilization zebrafish Assay for Jaw Malformation (AID 2283638);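 also: active means more embryos with jaw malformation than DMSO controls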
Procedure, shortened: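 Binary jaw-malformation call at 120 hpf by brightfield microscopy. Embryos (Tropical 5D strain, chorion removed at 4 hpf) were dosed statically at 6 hpf, one per well, at 28C with 0.64% DMSO. Embryos that died were not scored.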

[14] = molecular target: Retinoic acid receptor RXR-alpha (Homo sapiens) (UniProt P19793); assay: OT_NURR1_NURR1RXRa_1440: Odyssey Thera (OT) 24-hour HEK293T Protein Complementation Assay for Nurr1/retinoid X receptor (RXR) (AID 2283386)
Procedure, shortened: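 HEK293T cells were dosed with compound and read 24 h later by fluorescence intensity in a protein-fragment complementation format, where Nurr1–RXRα interaction reconstitutes a split reporter. Activity was fitted as gain of signal relative to DMSO baseline.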

[15] = ATG_XTT_Cytotoxicity: Cytotoxicity Assessment in the Attagene TRANS-FACTORIAL HepG2 Assay (AID 2283584);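 as to AC50: cells exposed to compound for 24 h before reading; active means loss of viability signal versus DMSO baseline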
Procedure, shortened: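 Viability endpoint from XTT after 24 h chemical exposure of reporter-transfected human HepG2 liver cells; signal loss fitted relative to DMSO negative control.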

[16] = Tanguay_ZF_120hpf_MORT_legacy: (Legacy) Oregon State University Tanguay Lab 120 Hour Post-fertilization zebrafish Assay for Mortality (AID 2283633);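 also: fitted as increase in binary mortality versus DMSO negative control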
Procedure, shortened: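 Static waterborne exposure from 6 to 120 hpf at 28C of single dechorionated wild-type (5D) embryos per well, 0.64% DMSO final. Death recorded present/absent by brightfield at 24 and 120 hpf.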

For `CCCCCCCCOc1ccc(C(=O)c2ccccc2)c(O)c1`, the AC50 [1] was inconclusive: 50 µM, the AC50 [2] was inconclusive: 23 µM and the outcome [2] was “inactive”. For the same compound, the AC50 [3] was inconclusive: 46.1 µM, the outcome [3] was “inactive” and the AC50 [4] was inconclusive: 46.1 µM and inconclusive: 23 µM. For the same compound, the AC50 [5] was inconclusive: 46.1 µM and inconclusive: 23 µM, the outcome [5] was “inactive” and the AC50 [6] was inconclusive: 5.9e-05 µM. For the same compound, the outcome [6] was “inactive”, the AC50 [7] was inconclusive: 6.31 µM and inconclusive: 23 µM and the AC50 [8] was inconclusive: 46.1 µM and inconclusive: 36.4 µM. For the same compound, the outcome [8] was “inactive”.

In the case of `COCCO`, the AC50 [1] is reported as inconclusive: 50 µM, the AC50 [9] is reported as inconclusive: 5.32 µM and the AC50 [3] is reported as inconclusive: 46.1 µM. The AC50 [5] was inconclusive: 46.1 µM, the outcome [7] was “inactive” and the AC50 [8] was inconclusive: 77.1 µM. The AC50 [10] was inconclusive: 27.6 µM.

For `CCOC(OCC)OCC`, the AC50 [1] was inconclusive: 50 µM, the AC50 [9] was inconclusive: 46.1 µM and the AC50 [2] was inconclusive: 85.8 µM. The AC50 [4] was inconclusive: 72.6 µM, the AC50 [5] was inconclusive: 6.22 µM and the AC50 [8] was inconclusive: 46.1 µM.

In the case of `CCCCCc1ccc(Cl)cc1`, the outcome [1] is reported as “inactive”, the outcome [9] is reported as “inactive” and the AC50 [2] is reported as inconclusive: 46.1 µM. For the same compound, the AC50 [3] was inconclusive: 86.1 µM, the outcome [4] was “inactive” and the AC50 [5] was inconclusive: 46.1 µM. The AC50 [7] was inconclusive: 46.1 µM.

With `CCC(C)(C)C(=O)O[C@H]1C[C@@H](C)C=C2C=C[C@H](C)[C@H](CC[C@@H]3C[C@@H](O)CC(=O)O3)[C@H]21` the AC50 [11] was active: 0.737 µM.

For `NC(=O)NN=Cc1ccc([N+](=O)[O-])o1`, the AC50 [11] was inconclusive: 183 µM.

For `OCC(CO)(CO)CO`, the AC50 [12] was inconclusive: 120 µM and the AC50 [13] was inconclusive: 31.7 µM.

With `O=CCCCC=O` the outcome [12] was “inactive”.

In the case of `C=C(C)C(=O)OCCC(F)(F)C(F)(F)C(F)(F)C(F)(F)C(F)(F)C(F)(F)F`, the AC50 [13] is reported as inconclusive: 202 µM.

In the case of `CCCCCCCCCCCCCCCC(=O)OC[C@H](O)[C@H]1OC(=O)C(O)=C1O`, the AC50 [14] is reported as active: 84.2 µM, the outcome [15] is reported as “inactive” and the AC50 [9] is reported as inconclusive: 1.53 µM and inconclusive: 23 µM. The AC50 [5] was inconclusive: 46.1 µM and inconclusive: 1.94 nM, the AC50 [6] was inconclusive: 46.1 µM and inconclusive: 40.4 µM and the AC50 [7] was inconclusive: 46.1 µM.

For `O=C(c1ccccc1)c1ccc(O)cc1O`, the AC50 [14] was inconclusive: 50 µM, the AC50 [9] was inconclusive: 2.1 µM and the outcome [9] was “inactive”. The AC50 [3] was inconclusive: 17.4 µM, the outcome [3] was “inactive” and the outcome [4] was “inactive”. For the same compound, the AC50 [5] was inconclusive: 2.87 µM, the outcome [5] was “inactive” and the AC50 [7] was inconclusive: 46.1 µM and inconclusive: 14 µM.

With `C[C@]12CC[C@H]3C(=CCc4cc(O)ccc43)[C@@H]1CCC2=O` the AC50 [14] was inconclusive: 50 µM, the outcome [15] was “inactive” and the outcome [4] was “inactive”. The AC50 [5] was active: 15.8 µM and the outcome [6] was “inactive”.

For `OC(Cn1cncn1)(Cn1cncn1)c1ccc(F)cc1F`, the outcome [14] was “inactive”, the AC50 [9] was inconclusive: 46.1 µM and inconclusive: 46.5 µM and the AC50 [3] was inconclusive: 156 nM and inconclusive: 23 µM. For the same compound, the AC50 [4] was inconclusive: 46.1 µM, the AC50 [5] was inconclusive: 46.1 µM and inconclusive: 46.5 µM and the AC50 [6] was inconclusive: 46.1 µM. The outcome [8] was “inactive” and the AC50 [11] was inconclusive: 202 µM.

In the case of `CC(=O)OC(C)C`, the AC50 [14] is reported as inconclusive: 50 µM, the AC50 [9] is reported as inconclusive: 46.1 µM and the outcome [9] is reported as “inactive”. For the same compound, the outcome [2] was “inactive”, the outcome [3] was “inactive” and the outcome [4] was “inactive”. For the same compound, the AC50 [5] was inconclusive: 45 µM, the outcome [6] was “inactive” and the AC50 [7] was inconclusive: 45 µM.

With `CCCc1cc(=O)[nH]c(=S)[nH]1` the outcome [14] was “inactive”, the AC50 [15] was inconclusive: 100 µM and the AC50 [9] was inconclusive: 47.3 µM. The AC50 [3] was inconclusive: 47.3 µM, the AC50 [4] was inconclusive: 47.3 µM and inconclusive: 42.2 µM and the outcome [4] was “inactive”. The outcome [7] was “inactive”, the AC50 [8] was inconclusive: 43 µM and the AC50 [16] was inconclusive: 202 µM.

With `NC(=O)Nc1ccccc1` the outcome [14] was “inactive”, the outcome [15] was “inactive” and the AC50 [2] was inconclusive: 44 µM. For the same compound, the AC50 [3] was inconclusive: 44 µM, the outcome [6] was “inactive” and the AC50 [7] was inconclusive: 44 µM. The outcome [8] was “inactive”.
